Source: PubChem BioAssay AID1259308 (NCATS, 2017)
Shown is a random part of about 59,000 reagents tested. About 1,510 of all reagents (2.6%) were called active. 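Calls use total luciferase alone and ignore viability, so some active siRNAs may act by altering cell number.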 A number with no mark means an inactive call. Reagents against one gene are numbered here. Further read-outs or replicates are left out here.

Aim: 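Knock-downs that increase output of a recombinant reporter protein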 (primary screen)
Cell system: human HEK293 embryonic kidney cells stably expressing firefly luciferase (HEK-CMV-Luc2-Hygro)
Reagent: single siRNA against human genes, 0.8 pmol siRNA per well
Time to read-out: 72 h
Read-out: 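Reporter luminescence and viable-cell signal on separate replicate plates, given as percent of non-targeting control and median/MAD z-scores, plus per-cell luciferase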
Reading the numbers: total luciferase, z-score: higher = more reporter protein produced
Rule for the call: 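An siRNA counts as active if its total luciferase robust z-score exceeds 3; genes with two or more such siRNAs out of three were retested with fresh siRNAs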
Calls: active = raised luciferase; inactive = no rise

The first 2 entries, ahead of the listing:
SFXN3 (sideroflexin 3) #1: total luciferase, z-score = 0.792
SFXN3 (sideroflexin 3) #2: total luciferase, z-score = 0.76

Results, repeating the preview:
SFXN3 (sideroflexin 3) #1: total luciferase, z-score = 0.792
SFXN3 (sideroflexin 3) #2: total luciferase, z-score = 0.76
SFXN3 (sideroflexin 3) #3: total luciferase, z-score = -0.685
ZNF417 (zinc finger protein 417) #1: total luciferase, z-score = 0.435
ZNF417 (zinc finger protein 417) #2: total luciferase, z-score = 0.316
ZNF417 (zinc finger protein 417) #3: total luciferase, z-score = -0.153
ZNF595 (zinc finger protein 595) #1: total luciferase, z-score = 0.89
ZNF595 (zinc finger protein 595) #2: total luciferase, z-score = 1.18
ZNF595 (zinc finger protein 595) #3: total luciferase, z-score = 0.0602
GFM1 (G elongation factor mitochondrial 1) #1: total luciferase, z-score = -0.811
GFM1 (G elongation factor mitochondrial 1) #2: total luciferase, z-score = -0.00161
GFM1 (G elongation factor mitochondrial 1) #3: total luciferase, z-score = -0.984
